Two substances from publication PMC6733924 can be followed below.

By UniProt entry, the sequences of proteins in these tests, tags left out. Where a name states a change or a piece, a line headed by the entry shows the natural chain unless it says otherwise.
UniProt Q7Z2W7: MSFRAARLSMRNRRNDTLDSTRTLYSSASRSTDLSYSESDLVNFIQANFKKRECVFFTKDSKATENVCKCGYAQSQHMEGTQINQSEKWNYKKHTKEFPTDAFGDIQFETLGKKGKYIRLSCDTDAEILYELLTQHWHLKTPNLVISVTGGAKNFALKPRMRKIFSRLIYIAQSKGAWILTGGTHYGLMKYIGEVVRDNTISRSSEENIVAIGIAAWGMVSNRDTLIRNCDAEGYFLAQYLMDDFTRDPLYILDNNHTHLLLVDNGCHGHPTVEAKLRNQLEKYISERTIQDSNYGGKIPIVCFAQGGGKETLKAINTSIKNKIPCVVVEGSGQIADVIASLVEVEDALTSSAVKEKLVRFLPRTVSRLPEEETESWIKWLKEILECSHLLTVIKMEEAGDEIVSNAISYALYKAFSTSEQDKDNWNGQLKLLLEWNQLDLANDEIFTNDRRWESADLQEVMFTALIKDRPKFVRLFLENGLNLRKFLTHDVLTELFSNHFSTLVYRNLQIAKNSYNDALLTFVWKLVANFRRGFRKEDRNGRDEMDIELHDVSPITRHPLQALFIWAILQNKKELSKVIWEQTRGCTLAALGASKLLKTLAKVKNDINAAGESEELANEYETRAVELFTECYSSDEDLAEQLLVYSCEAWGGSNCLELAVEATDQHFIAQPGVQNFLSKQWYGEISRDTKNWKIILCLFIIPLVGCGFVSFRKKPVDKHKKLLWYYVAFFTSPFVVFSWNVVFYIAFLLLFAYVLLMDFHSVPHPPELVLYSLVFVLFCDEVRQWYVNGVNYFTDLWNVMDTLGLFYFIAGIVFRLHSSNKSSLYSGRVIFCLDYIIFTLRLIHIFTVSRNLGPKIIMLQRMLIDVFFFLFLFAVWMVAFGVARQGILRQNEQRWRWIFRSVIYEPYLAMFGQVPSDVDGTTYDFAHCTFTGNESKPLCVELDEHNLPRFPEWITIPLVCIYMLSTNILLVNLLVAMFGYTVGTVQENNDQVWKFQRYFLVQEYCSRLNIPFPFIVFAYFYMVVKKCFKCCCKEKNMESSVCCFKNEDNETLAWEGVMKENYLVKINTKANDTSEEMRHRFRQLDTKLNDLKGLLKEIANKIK
UniProt P10275: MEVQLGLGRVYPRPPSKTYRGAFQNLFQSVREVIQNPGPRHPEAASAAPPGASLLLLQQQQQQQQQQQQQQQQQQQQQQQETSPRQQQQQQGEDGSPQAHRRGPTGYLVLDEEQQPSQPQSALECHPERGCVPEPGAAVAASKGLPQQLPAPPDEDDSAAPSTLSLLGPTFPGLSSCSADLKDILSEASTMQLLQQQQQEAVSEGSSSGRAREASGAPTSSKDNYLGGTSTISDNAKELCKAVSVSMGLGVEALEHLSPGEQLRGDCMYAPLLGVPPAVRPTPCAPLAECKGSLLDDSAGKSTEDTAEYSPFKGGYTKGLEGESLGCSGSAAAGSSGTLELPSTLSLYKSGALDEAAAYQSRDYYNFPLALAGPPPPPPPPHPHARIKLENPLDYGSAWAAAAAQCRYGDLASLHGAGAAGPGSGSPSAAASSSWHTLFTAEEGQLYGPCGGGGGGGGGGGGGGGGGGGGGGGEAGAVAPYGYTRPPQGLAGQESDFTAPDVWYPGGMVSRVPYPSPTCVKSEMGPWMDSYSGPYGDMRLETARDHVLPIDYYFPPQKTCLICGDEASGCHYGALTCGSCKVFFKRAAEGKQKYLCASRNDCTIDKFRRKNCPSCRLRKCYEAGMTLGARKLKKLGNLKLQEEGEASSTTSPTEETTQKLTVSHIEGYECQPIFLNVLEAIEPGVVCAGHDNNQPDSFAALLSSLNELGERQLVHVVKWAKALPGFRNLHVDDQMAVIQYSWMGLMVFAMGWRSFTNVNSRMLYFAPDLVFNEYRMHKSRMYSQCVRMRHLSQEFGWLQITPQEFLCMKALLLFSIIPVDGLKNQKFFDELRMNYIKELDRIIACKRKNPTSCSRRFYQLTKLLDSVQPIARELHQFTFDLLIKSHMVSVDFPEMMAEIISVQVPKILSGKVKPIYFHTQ

The experiment concerns the target full-length his-tagged TRPM8 (UniProt Q7Z2W7). As to the kind of experiment: co-IP; PC3-TRPM8 cells transfected with peGFP-AR (wild-type, 23 or Q640X); lysate (1% Triton X-100, 1% sodium deoxycholate, 150 mM NaCl) incubated overnight at 4 °C with His-tag beads in IP buffer (20 mM NaH2PO4, 150 mM NaCl, pH 8); AR detected with anti-GFP; cells treated with vehicle or 1, 10, 100 nM testosterone for 20 min (wild type: decrease by 58.2%-68.4% at 10-100 nM).

Results are given in words; binding and its absence hold for the method and conditions named. Binding seen in cells or lysates may run through a third protein. Some results given as binding are weak or reduced against the parent protein; the word gives no strength.

For the substance “GFP-labeled AR (wild type) (from UniProt P10275 1-920)”, the binding entry was “binds”.
The value for “nuclear AR mutant ARQ640X-GFP (from UniProt P10275 1-639) (domain or fragment)” was “no binding”.
